Where two headings read alike, the source gives them in different places.
Legend:
6-AmHap-Abs [1] = format: binding, mouse; conditions: read-out: Competition ELISA Heterologous, IC50
6-AmHap-Abs [2] = conditions: read-out: Competition ELISA Homologous, IC50; cited from earlier work
6-AmHap-Abs [3] = format: binding, mouse; conditions: for IC50: read-out: Heterologous MST IC50; for Ki: read-out: Heterologous MST Ki
Method: The final concentrations of 6-AmHap-Abs, MorHap-Cy5 in the capillaries were 10 nM and 0.25 nM, respectively. The same procedure was performed for the binding of the 6-AmHap-Abs to the other drugs but different concentrations of competitor working solutions were used.
For the heroin-binding assay in the presence of esterase inhibitors, a working solution containing 6-AmHap antibody (40 nM) and 80 μM iso-OMPA/80 μM BNPP was incubated for 2 h at RT. An equal volume of MorHap-Cy5 (1 nM) was then mixed with the 6-AmHap-Abs/iso-OMPA/BNPP mixture and the reaction mixture was further incubated for 20 min in the dark at RT. The rest of the procedure was performed as described above. The final concentrations of 6-AmHap-Abs, iso-OMPA/BNPP, and MorHap-Cy5 in the capillaries were 10 nM, 20 μM/20 μM, and 0.25 nM, respectively.
The MST measurements were done on a Monolith™ NT.115^Pico instrument from NanoTemper Technologies GmbH. The instrument was equipped with an IR laser (wavelength, 1475 ± 15 nm; power, 120 mW maximum) and a red fluorescence channel that can detect red dyes, such as Cy5 and Alexa Fluor 647. The samples were measured at an LED power of 20% and an MST power of 25% with a laser-on time of 30 s and a laser-off time of 5 s. MST measurements of 15–16 samples typically take ~ 20 min.
In the competition MST procedures, a constant concentration of MorHap-Cy5:antibody complex was titrated with an increasing concentration of drug competitor. […] The software plots Fnorm against 15–16 increasing drug competitor concentration points to yield the binding curve, and subsequently fits the curve to obtain the IC50. For presentation purposes, the fraction bound was manually calculated and plotted using the equation above where x is the Fnorm at a given competitor concentration. The binding affinities (Ki) from the heterologous MST assays were then derived using the Ki-Finder software from the Nanotemper website. In order to calculate the Ki, the following parameters must be entered into the Ki-Finder website: the binding affinity of the tracer against the antibody (Kd), the concentration of the antibody (I0), the concentration of the tracer (labeled T0), the highest concentration of the competitor (L0), and the IC50 of the competitor to the antibody. The website then plots both the binding curve and competition curve to produce the competitor Ki, also known as the Kd of the antibody to the drug competitor.

Compound	IC50 (6-AmHap-Abs [1])	IC50 (6-AmHap-Abs [2])	IC50 (6-AmHap-Abs [3])	Ki (6-AmHap-Abs [3])
CCOC(=O)C1(c2ccccc2)CCN(C)CC1 [Meperidine, meperidine]	7.03 ± 6.06 µM	524 ± 143 µM	1.1723 ± 0.00113 µM	0.552 ± 0.262 µM
C=CCN1CC[C@]23c4c5ccc(O)c4O[C@H]2C(=O)CC[C@@]3(O)[C@H]1C5 [Naloxone, naloxone]	2.05 ± 1.29 µM	> 1000 µM	3.0378 ± 0.00137 µM	1.38 ± 0.147 µM
